The list shows a part of the results, in another mix than the full data. At the low end of the ranking, values are background and their order means little.
These sequences were tested against SPI1 (UniProt P17947) (assay: DAPPL (digital affinity profiling via proximity ligation, sequencing)). Settings: 10 mM Tris-HCl pH 7.5, 50 mM NaCl, 1 mM DTT, 4% glycerol, room temperature, 30 min; GST-TFs on glutathione beads, 16-mer random dsDNA library, 0.1% …; high values mean tight binding; double strand, one strand shown; scale: fold enrichment (6-mer frequency, TF over GST control).

**Q.** CAAGCG was tested. Which binding signal did it give?
**A.** The binding signal was 0.856.

**Q.** With GACGGA as the sequence, how does the binding signal read?
**A.** Its binding signal is 0.496.

**Q.** GTAGGA was tested. Which binding signal did it give?
**A.** The binding signal was 0.561.

**Q.** CAATCG was tested. Which binding signal did it give?
**A.** The binding signal was 0.879.

**Q.** GGTGTA was tested. Which binding signal did it give?
**A.** Its binding signal is 0.847.

**Q.** With CGTGTC as the sequence, how does the binding signal read?
**A.** The binding signal was 0.792.

**Q.** With GCCGGG as the sequence, how does the binding signal read?
**A.** The binding signal was 0.378.

**Q.** How did the binding signal turn out when GACTAA was run?
**A.** The binding signal was 0.804.

**Q.** GCTGGG was tested. Which binding signal did it give?
**A.** The binding signal was 0.856.

**Q.** For GGAGCA, which binding signal is on record?
**A.** Its binding signal is 0.462.

**Q.** How did the binding signal turn out when CGAGAG was run?
**A.** The binding signal was 0.369.

**Q.** How did the binding signal turn out when GGAGCT was run?
**A.** Its binding signal is 0.588.

**Q.** How did the binding signal turn out when TTGGAG was run?
**A.** The binding signal was 0.53.

**Q.** CAGGCG was tested. Which binding signal did it give?
**A.** Its binding signal is 0.271.

**Q.** Which binding signal does the source give for CCCAGT here?
**A.** The binding signal was 0.674.

**Q.** How did the binding signal turn out when GATGTG was run?
**A.** Its binding signal is 0.958.

**Q.** With GACAAG as the sequence, how does the binding signal read?
**A.** Its binding signal is 0.722.

**Q.** How did the binding signal turn out when AGTCCG was run?
**A.** Its binding signal is 0.621.

**Q.** Which binding signal does the source give for GTCGTA here?
**A.** The binding signal was 0.651.

**Q.** For TTGTGA, which binding signal is on record?
**A.** The binding signal was 0.807.

**Q.** Which binding signal does the source give for TCGTAG here?
**A.** Its binding signal is 0.802.

**Q.** Which binding signal does the source give for ATAGGA here?
**A.** Its binding signal is 0.854.

**Q.** Which binding signal does the source give for GAGTCT here?
**A.** Its binding signal is 0.362.

**Q.** Which binding signal does the source give for CGTAGG here?
**A.** Its binding signal is 0.655.

**Q.** For TCGCAG, which binding signal is on record?
**A.** The binding signal was 0.873.

**Q.** Which binding signal does the source give for CCGAGA here?
**A.** Its binding signal is 0.577.

**Q.** GAACGC was tested. Which binding signal did it give?
**A.** Its binding signal is 0.763.

**Q.** Which binding signal does the source give for GGTCGC here?
**A.** Its binding signal is 0.848.

**Q.** For TAGTGA, which binding signal is on record?
**A.** The binding signal was 0.557.

**Q.** Which binding signal does the source give for CCTGAG here?
**A.** Its binding signal is 0.712.

**Q.** How did the binding signal turn out when GTACGG was run?
**A.** The binding signal was 0.815.

**Q.** Which binding signal does the source give for GACATA here?
**A.** The binding signal was 0.863.

**Q.** For GAGTTA, which binding signal is on record?
**A.** Its binding signal is 0.628.

**Q.** With GTATAG as the sequence, how does the binding signal read?
**A.** Its binding signal is 0.977.

**Q.** ACAGGT was tested. Which binding signal did it give?
**A.** The binding signal was 0.741.

**Q.** With GGTTGC as the sequence, how does the binding signal read?
**A.** The binding signal was 0.925.

**Q.** GTCAGT was tested. Which binding signal did it give?
**A.** The binding signal was 0.635.

**Q.** GCAAGG was tested. Which binding signal did it give?
**A.** Its binding signal is 0.817.

**Q.** Which binding signal does the source give for TCGGAA here?
**A.** The binding signal was 0.515.
